For experiment [1], the target named is T1, USP18 (endogenous, THP-1 derived macrophages) (human (endogenous in THP-1)) (UniProt Q9UMW8).
T1 sequence: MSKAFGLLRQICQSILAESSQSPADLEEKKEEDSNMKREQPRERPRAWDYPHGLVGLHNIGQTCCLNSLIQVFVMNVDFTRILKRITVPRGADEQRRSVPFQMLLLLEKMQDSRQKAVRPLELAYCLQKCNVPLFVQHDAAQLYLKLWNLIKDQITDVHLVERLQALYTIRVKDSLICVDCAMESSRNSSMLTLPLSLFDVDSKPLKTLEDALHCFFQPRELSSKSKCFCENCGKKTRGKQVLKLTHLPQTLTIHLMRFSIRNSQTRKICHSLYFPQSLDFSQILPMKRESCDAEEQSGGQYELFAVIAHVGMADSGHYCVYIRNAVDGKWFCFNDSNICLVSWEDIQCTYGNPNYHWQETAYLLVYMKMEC
Description: co-IP; endogenous proteins, extracts of unstimulated THP-1 derived macrophages (Fig. 4h); precipitated with anti-USP18, immunoblot. A general note: A western blot detects proteins with antibodies after separation by electrophoresis.

Protein sequences, listed by entry. Tags and fused reporters are not part of them.
UniProt Q9Y6K9: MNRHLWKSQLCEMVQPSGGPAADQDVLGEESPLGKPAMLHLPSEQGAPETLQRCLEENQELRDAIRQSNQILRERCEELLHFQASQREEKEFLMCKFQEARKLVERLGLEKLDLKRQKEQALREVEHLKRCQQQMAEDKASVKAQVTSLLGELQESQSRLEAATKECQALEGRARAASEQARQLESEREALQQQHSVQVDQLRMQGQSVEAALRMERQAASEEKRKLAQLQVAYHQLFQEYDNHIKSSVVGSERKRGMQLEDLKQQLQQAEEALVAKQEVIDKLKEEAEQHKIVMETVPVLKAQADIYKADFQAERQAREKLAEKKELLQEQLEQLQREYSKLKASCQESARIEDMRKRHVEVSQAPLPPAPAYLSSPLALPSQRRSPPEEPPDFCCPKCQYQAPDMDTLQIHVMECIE

Experiment [2] deals with T1, USP18 (endogenous, THP-1 derived macrophages) (human (endogenous in THP-1)). Description: co-IP; endogenous proteins, extracts of THP-1 derived macrophages treated for various times with LPS (Fig. 4h); precipitated with anti-USP18, immunoblot.
Experiment [3] deals with T2, Flag-USP18 (not stated (human or mouse cDNA cloned)) (UniProt Q9UMW8).
T2 sequence: T1 sequence
Nature of the experiment: co-IP; 293T cells transfected with HA-IKKα, HA-IKKβ or HA-NEMO and Flag-USP18 (Fig. 4d); precipitated with anti-Flag beads, blotted with HA.

These are yes or no findings as the source states them, for the method shown. In cells and extracts the contact can be indirect. Some entries that bind do so weakly or less than the wild type. For part of these data: Where a sequence is shown, tags or fusion partners need not be part of it.

“NEMO (endogenous, THP-1 derived macrophages) (from UniProt Q9Y6K9 1-419)”: the binding entry in experiment [1] is recorded as “binds weakly”; in experiment [2] it was “binds”.
Regarding HA-NEMO (from UniProt Q9Y6K9 1-419), the binding result in experiment [3] was “binds”.

The values above are taken from publication PMC4523862.
